Assay results as given in the supplement of paper PMC10849652.
Some of the results follow.

What was measured:
Assay in all cases: log2 fold change, soluble protein after heating vs DMSO (PISA); higher = thermal stabilisation; K562 lysate, 10 uM; active = over 0.2 and 3.5 SD of the protein, either way, in both replicates (recomputed)
pictilisib = compound: CS(=O)(=O)N1CCN(Cc2cc3nc(-c4cccc5[nH]ncc45)nc(N4CCOCC4)c3s2)CC1 [pictilisib]
Outline: (§1)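 K562 pellets were dounce-homogenised in PBS pH 7.4 containing 1 mM MgCl2, and the crude extract, at 1 mg/mL protein, was exposed to 10 μM compound for 30 min. Aliquots were heated for 3 min across 48°C-58°C, pooled, brought to 0.5% NP-40 at 4°C and spun at 21,000xg for 90 min, with the supernatant taken as soluble protein. TMTpro 16plex LC-MS/MS with equalised channel sums quantified that protein. Values are log-two fold changes in thermal stability relative to solvent controls, taken from duplicates.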

crizotinib = compound: C[C@@H](Oc1cc(-c2cnn(C3CCNCC3)c2)cnc1N)c1c(Cl)ccc(F)c1Cl [crizotinib]
Outline: as §1

duvelisib = compound: C[C@H](Nc1ncnc2nc[nH]c12)c1cc2cccc(Cl)c2c(=O)n1-c1ccccc1 [duvelisib]
Outline: as §1

tozasertib = compound: Cc1cc(Nc2cc(N3CCN(C)CC3)nc(Sc3ccc(NC(=O)C4CC4)cc3)n2)n[nH]1 [tozasertib]
Outline: as §1

doramapimod = compound: Cc1ccc(-n2nc(C(C)(C)C)cc2NC(=O)Nc2ccc(OCCN3CCOCC3)c3ccccc23)cc1 [doramapimod]
Outline: as §1

bafetinib = compound: Cc1ccc(NC(=O)c2ccc(CN3CC[C@H](N(C)C)C3)c(C(F)(F)F)c2)cc1Nc1nccc(-c2cncnc2)n1 [bafetinib]
Outline: as §1

lapatinib = compound: CS(=O)(=O)CCNCc1ccc(-c2ccc3ncnc(Nc4ccc(OCc5cccc(F)c5)c(Cl)c4)c3c2)o1 [lapatinib]
Outline: as §1

[1] = compound: C[C@H](C1=CC=C(C=C1)C(=O)NC2=C3C=CNC3=NC=C2)N
Outline: as §1

gandotinib = compound: Cc1cc(Nc2cc(CN3CCOCC3)c3nc(C)c(Cc4ccc(Cl)cc4F)n3n2)n[nH]1 [gandotinib]
Outline: as §1

[2] = compound: Cc1cccc(CC(=O)N2CCc3c2ccc(-c2cn(C)c4ncnc(N)c24)c3F)n1
Outline: as §1

Measured: log2 fold change

USP20 (UniProt Q9Y2K6)
inactive: pictilisib -0.145 | crizotinib -0.037 | duvelisib 0.093 | tozasertib 0.074 | doramapimod -0.019 | bafetinib 0.196

USP40 isoform 3 (UniProt Q9NVE5)
inactive: crizotinib -0.096 | duvelisib 0.134 | doramapimod 0.005

USP27X (UniProt A6NNY8)
inactive: crizotinib -0.149 | doramapimod -0.012

URGCP (UniProt Q8TCY9)
inactive: pictilisib -0.025 | duvelisib 0.158 | bafetinib -0.137

VASN (UniProt Q6EMK4)
inactive: duvelisib -0.119 | tozasertib 0.08

VGF (UniProt O15240)
inactive: duvelisib -0.022 | tozasertib 0.274

VAV2 (UniProt P52735)
inactive: lapatinib 0.192 | duvelisib -0.069

UNG (UniProt P13051)
inactive: pictilisib 0.098 | [1] -0.071 | duvelisib 0.068 | gandotinib 0.052 | tozasertib 0.15 | bafetinib -0.076 | [2] 0.008

USP15 isoform 3 (UniProt Q9Y4E8)
inactive: lapatinib -0.067 | crizotinib 0.032 | duvelisib -0.049 | doramapimod -0.024

UHRF2 (UniProt Q96PU4)
inactive: crizotinib -0.07 | doramapimod -0.055

UTRN isoform 2 (UniProt P46939)
inactive: pictilisib 0.01 | [1] -0.009 | gandotinib 0.04 | tozasertib -0.077 | bafetinib -0.175 | [2] -0.018

USP30 (UniProt Q70CQ3)
inactive: crizotinib -0.063 | [1] 0.1 | duvelisib -0.056 | gandotinib -0.07 | doramapimod -0.153 | [2] 0.063

VCPKMT (UniProt Q9H867)
inactive: pictilisib -0.135 | crizotinib -0.139 | doramapimod 0.026 | bafetinib -0.014

USP22 (UniProt Q9UPT9)
inactive: pictilisib 0.001 | crizotinib -0.072 | [1] 0.004 | duvelisib -0.006 | gandotinib -0.148 | tozasertib 0.036 | doramapimod -0.029 | bafetinib -0.032 | [2] 0.019

UGCG (UniProt Q16739)
inactive: pictilisib 0.004 | crizotinib 0.196 | duvelisib 0.126 | doramapimod -0.021 | bafetinib -0.092

UNKL (UniProt E9PDK2)
inactive: pictilisib -0.113 | crizotinib -0.078 | duvelisib 0.184 | tozasertib -0.039 | doramapimod 0.07 | bafetinib -0.041

UNC13A (UniProt Q9UPW8)
inactive: [1] -1.52 | gandotinib 0.331 | [2] 0.481

UQCRB (UniProt E5RHG9)
inactive: duvelisib -0.056

Two records drawn at random from those above, as already listed:
UGCG (UniProt Q16739)
inactive: pictilisib 0.004 | crizotinib 0.196 | duvelisib 0.126 | doramapimod -0.021 | bafetinib -0.092

UQCRB (UniProt E5RHG9)
inactive: duvelisib -0.056

Going on with the list.

USP36 (UniProt Q9P275)
inactive: lapatinib -0.096 | crizotinib -0.093 | [1] 0.034 | gandotinib 0.079 | tozasertib 0.107 | doramapimod 0.01 | [2] -0.031
